# Results published in PubChem BioAssay AID1508600 (Functional Genomics Laboratory (NCATS/FGL), 2020).
# Screen size: about 53,000 sequences; about 3,700 (7%) were called active.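 How the source made its calls: active means gene knockdowns whose robust z-score for IL-1 alpha signal is at least 2 or at most -2, so actives lie on both sides; inactive means the rest.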 The list shows a part of the results.
# Assay: Components of the Cytosolic LPS Sensing Pathway: Gene Identification via Genome-wide siRNA Screen;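 further: robust z of the log signal after scaling to non-targeting control siRNA wells of the plate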
# Conditions: RAW264.7 macrophages, IL-1a HTRF, actives lie on both sides, screened at 100 nM (by protocol), cells primed 5 h with Pam3CSK4 first
# How it was run: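 Knockdown: 100 nM siRNA, 48h, RAW264.7. Stimulation: Pam3CSK4 5 h, then LipidA via TransIT-TKO 24 h. Output: supernatant IL-1a HTRF, negative-control-normalized, log robust z-score; viability by CellTiter-Glo.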
row,Sequence,z-score
1,CCUGUCCUGAUGGUGAAACTT against Serpinb3c,inactive: 0.619
2,GCCGUUUAUUCAUUGCACUTT against Cdc123,inactive: 1.21
3,CCGUGAUAAUGUAACACCUTT against Prtg,inactive: 0.0383
4,GGGUUGUUCCAAAUGCUAGTT against Skp1,inactive: -0.65
5,GCUAUUGUAACACCUCAGGTT against Lef1,inactive: -0.899
6,GCCUGUCACUUUCUGAUAATT against Tpm2,inactive: 1.15
7,GGCUGCUGUUAACAAGCUGTT against Wdr13,active: -2.41
8,CGGAAUCUAGGCUUGUGCATT against Timp1,inactive: -0.661
9,GGCAUCCUGUGUUUUAACUTT against Mmp3,inactive: 0.25
10,GGACACAAGCCUAUUCCAATT against Rffl,inactive: 1.59
11,GCUAGGACUACAGCUGGGATT against Snrnp48,active: -2.56
12,CCCUGUACACAGAAGGACATT against Dolk,inactive: -0.857
13,GCAUUCAUCAGGGUUGAUUTT against Wdr20,active: -2.43
14,GCACAAAUAAAGAUAAGAGTT against Uox,inactive: -0.178
15,GCCCUCGUUCAUACCGUAUTT against Olfr332,inactive: 0.527
16,GGACAGACAAAUACAAGAGTT against Tmco1,inactive: 0.428
17,GGAUAACCUUAACUUCUGATT against Usp48,inactive: 0.625
18,GGACUCCUAAUGAAUAAUCTT against Wee2,active: 2.06
19,CCUCGUUCCUAUCAUUAACTT against Sdccag8,inactive: 0.58
20,CCAAGUAUUUUUCUCCUUATT against Stk38,inactive: 1.69
21,UCUCCUUCAUUCCAUGCCUTT against Olfr237,inactive: -1.06
22,GGAAAAGGUUAAGAAAGCATT against Krr1,active: -2.53
23,GGGUCCAUUGUCAAUGUCUTT against Cbr2,inactive: -1.92
24,GGUCUUCCUGUUCUUGCUCTT against Olfr1009,inactive: 0.115
25,GGAAACUGUGGAUGAAAAGTT against Olfr1230,inactive: 0.266
26,CCAAGUACCCUGAGAGUUUTT against Pnpla6,inactive: 1.46
27,GGUGAAAGACACUUGAAUUTT against Cdk2,inactive: 0.625
28,GGUCCGAGAGACAUUGGCATT against Lmx1b,inactive: -0.118
29,GGAAAUAAGCAGCGCAUGCTT against Ippk,inactive: -1.27
30,GCCGGUUGGAACAAAAGGCTT against E130018O15Rik,inactive: 0.993

# Copied from the list.
# z-score, GCAUUCAUCAGGGUUGAUUTT against Wdr20 is entered as active: -2.43
# z-score, GGAAAAGGUUAAGAAAGCATT against Krr1 is entered as active: -2.53
